Some of the results follow.
Tests used:
Test in all cases: glycan array binding signal (z-score within array); higher = stronger binding
Conditions in all cases: glycan notation: IUPAC condensed, linker removed
[1] = biological target: GlcNAc(b1-3)Gal(b1-4)GlcNAc(b1-3)Gal(b1-4)GlcNAc(b1-3)Gal(b1-4)GlcNAc(b1-3)Gal(b1-4)GlcNAc(b1-2)Man(a1-3)[GlcNAc(b1-3)Gal(b1-4)GlcNAc(b1-3)Gal(b1-4)GlcNAc(b1-3)Gal(b1-4)GlcNAc(b1-3)Gal(b1-4)GlcNAc(b1-2)Man(a1-6)]Man(b1-4)GlcNAc(b1-4)GlcNAc
Procedure, shortened: (§1)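 Columns mapping to the same glycan were averaged after glycan names were converted to IUPAC-condensed notation. The data come from 3228 arrays in the Consortium for Functional Glycomics database, limited to those with an available protein sequence. Binding is reported as a within-array Z-score averaged across arrays of one protein sequence and across linkers.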

[2] = biological target: GlcNAc(b1-3)Gal(b1-4)GlcNAc(b1-3)Gal(b1-4)GlcNAc(b1-3)Gal(b1-4)GlcNAc(b1-3)Gal(b1-4)GlcNAc(b1-2)Man(a1-3)[GlcNAc(b1-3)Gal(b1-4)GlcNAc(b1-3)Gal(b1-4)GlcNAc(b1-3)Gal(b1-4)GlcNAc(b1-3)Gal(b1-4)GlcNAc(b1-2)Man(a1-6)]Man(b1-4)GlcNAc(b1-4)[Fuc(a1-6)]GlcNAc
Procedure, shortened: as §1

[3] = biological target: GlcNAc(b1-3)Gal(b1-4)GlcNAc(b1-3)Gal(b1-4)GlcNAc(b1-3)Gal(b1-4)GlcNAc(b1-3)Gal(b1-4)GlcNAc(b1-2)[GlcNAc(b1-3)Gal(b1-4)GlcNAc(b1-3)Gal(b1-4)GlcNAc(b1-3)Gal(b1-4)GlcNAc(b1-3)Gal(b1-4)GlcNAc(b1-6)]Man(a1-6)[GlcNAc(b1-3)Gal(b1-4)GlcNAc(b1-3)Gal(b1-4)GlcNAc(b1-3)Gal(b1-4)GlcNAc(b1-3)Gal(b1-4)GlcNAc(b1-2)Man(a1-3)]Man(b1-4)GlcNAc(b1-4)[Fuc(a1-6)]GlcNAc
Procedure, shortened: as §1

[4] = biological target: GlcNAc(b1-3)Gal(b1-4)GlcNAc(b1-3)Gal(b1-4)GlcNAc(b1-3)GalNAc
Procedure, shortened: as §1

[5] = biological target: GlcNAc(b1-3)Gal(b1-4)GlcNAc(b1-3)GalNAc
Procedure, shortened: as §1

[6] = biological target: GlcNAc(b1-3)Gal(b1-4)GlcNAc(b1-3)[GlcNAc(b1-3)Gal(b1-4)GlcNAc(b1-3)]GalNAc
Procedure, shortened: as §1

[7] = biological target: GlcNAc(b1-3)Gal(b1-4)GlcNAc(b1-6)[Gal(b1-3)]GalNAc
Procedure, shortened: as §1

[8] = biological target: GlcNAc(b1-3)Gal(b1-4)GlcNAc(b1-6)[GlcNAc(b1-3)Gal(b1-3)]GalNAc
Procedure, shortened: as §1

[9] = biological target: GlcNAc(b1-3)Gal(b1-4)GlcNAc(b1-6)[GlcNAc(b1-3)]Gal(b1-4)GlcNAc
Procedure, shortened: as §1

[10] = biological target: GlcNAc(b1-3)GalNAc
Procedure, shortened: as §1

[11] = biological target: GlcNAc(b1-3)Man
Procedure, shortened: as §1

[12] = biological target: GlcNAc(b1-3)[GlcNAc(b1-4)][GlcNAc(b1-6)]GlcNAc
Procedure, shortened: as §1

[13] = biological target: GlcNAc(b1-3)[GlcNAc(b1-6)]Gal(b1-4)GlcNAc
Procedure, shortened: as §1

[14] = biological target: GlcNAc(b1-3)[GlcNAc(b1-6)]GalNAc
Procedure, shortened: as §1

[15] = biological target: GlcNAc(b1-4)Gal(b1-4)GlcNAc
Procedure, shortened: as §1

[16] = biological target: GlcNAc(b1-4)GlcNAc
Procedure, shortened: as §1

[17] = biological target: GlcNAc(b1-4)GlcNAc(b1-4)GlcNAc
Procedure, shortened: as §1

[18] = biological target: GlcNAc(b1-4)GlcNAc(b1-4)GlcNAc(b1-4)GlcNAc(b1-4)GlcNAc
Procedure, shortened: as §1

[19] = biological target: GlcNAc(b1-4)GlcNAc(b1-4)GlcNAc(b1-4)GlcNAc(b1-4)GlcNAc(b1-4)GlcNAc
Procedure, shortened: as §1

[20] = biological target: GlcNAc(b1-4)[GlcNAc(b1-6)]GalNAc
Procedure, shortened: as §1

[21] = biological target: GlcNAc(b1-6)Gal(b1-4)GlcNAc
Procedure, shortened: as §1

[22] = biological target: GlcNAc(b1-6)GalNAc
Procedure, shortened: as §1

[23] = biological target: GlcNAc3Prop(b1-4)GlcNAc
Procedure, shortened: as §1

[24] = biological target: GlcNAc6S(b1-3)Gal(b1-4)GlcNAc
Procedure, shortened: as §1

[25] = biological target: Kdn(a2-3)Gal(b1-3)GalNAc
Procedure, shortened: as §1

[26] = biological target: Kdn(a2-3)Gal(b1-3)GlcNAc
Procedure, shortened: as §1

[27] = biological target: Kdn(a2-3)Gal(b1-4)Glc
Procedure, shortened: as §1

[28] = biological target: Kdn(a2-3)Gal(b1-4)GlcNAc
Procedure, shortened: as §1

[29] = biological target: Kdn(a2-3)Gal(b1-4)[Fuc(a1-3)]GlcNAc
Procedure, shortened: as §1

[30] = biological target: Kdn(a2-6)Gal(b1-4)GlcNAc
Procedure, shortened: as §1

[31] = biological target: Man(a1-2)Man(a1-2)Man(a1-3)Man
Procedure, shortened: as §1

[32] = biological target: Man(a1-2)Man(a1-2)Man(a1-6)[Man(a1-3)]Man
Procedure, shortened: as §1

[33] = biological target: Man(a1-2)Man(a1-3)Man
Procedure, shortened: as §1

[34] = biological target: Man(a1-2)Man(a1-3)[Man(a1-2)Man(a1-6)]Man
Procedure, shortened: as §1

[35] = biological target: Man(a1-2)Man(a1-3)[Man(a1-2)Man(a1-6)]Man(a1-6)[Man(a1-2)Man(a1-2)Man(a1-3)]Man
Procedure, shortened: as §1

[36] = biological target: Man(a1-2)Man(a1-3)[Man(a1-2)Man(a1-6)]Man(a1-6)[Man(a1-2)Man(a1-2)Man(a1-3)]Man(b1-4)GlcNAc(b1-4)GlcNAc
Procedure, shortened: as §1

[37] = biological target: Man(a1-2)Man(a1-3)[Man(a1-6)]Man(a1-6)[Man(a1-2)Man(a1-3)]Man(b1-4)GlcNAc(b1-4)GlcNAc
Procedure, shortened: as §1

[38] = biological target: Man(a1-2)Man(a1-6)[Man(a1-3)]Man(a1-6)[Man(a1-2)Man(a1-2)Man(a1-3)]Man
Procedure, shortened: as §1

[39] = biological target: Man(a1-2)Man(a1-6)[Man(a1-3)]Man(a1-6)[Man(a1-2)Man(a1-2)Man(a1-3)]Man(b1-4)GlcNAc(b1-4)GlcNAc
Procedure, shortened: as §1

[40] = biological target: Man(a1-3)[Man(a1-6)]Man
Procedure, shortened: as §1

[41] = biological target: Man(a1-3)[Man(a1-6)]Man(a1-6)[Man(a1-2)Man(a1-3)]Man(b1-4)GlcNAc(b1-4)GlcNAc
Procedure, shortened: as §1

[42] = biological target: Man(a1-3)[Man(a1-6)]Man(a1-6)[Man(a1-3)]Man
Procedure, shortened: as §1

[43] = biological target: Man(a1-3)[Man(a1-6)]Man(a1-6)[Man(a1-3)]Man(b1-4)GlcNAc(b1-4)GlcNAc
Procedure, shortened: as §1

[44] = biological target: Man(a1-3)[Man(a1-6)]Man(b1-4)GlcNAc(b1-4)GlcNAc
Procedure, shortened: as §1

[45] = biological target: Man(a1-3)[Man(a1-6)]Man(b1-4)GlcNAc(b1-4)[Fuc(a1-6)]GlcNAc
Procedure, shortened: as §1

B1: BabA (Helicobacter pylori), O52269_HELPY (protein)
chain: AEDDGFYMSAGYQIGEAAQMVKNTKGIQELSDNYENLSNLLTRYSTLNTLIKLSADPSAVNAARENLGASAKNLIGDTKNSPAYQAVLLAINAAVGFWNVVGYVTQCGGNANGQKSTSSTTIFNNEPGYRSTSITCSLNGHMPGYYGPMSIENFKKLNEAYQILQTALKNGLPALKENNGTVNVTYSYTCSGEGNDNCSLQTTGVTNQNNGTKTETQTIDGKSVTTTISSKVVDSQ
glycan array binding signal (z-score) [1]: 2.06 | glycan array binding signal (z-score) [2]: 0.98 | glycan array binding signal (z-score) [3]: 1.15 | glycan array binding signal (z-score) [4]: -0.682 | glycan array binding signal (z-score) [5]: -0.219 | glycan array binding signal (z-score) [6]: -0.237 | glycan array binding signal (z-score) [7]: 0.063 | glycan array binding signal (z-score) [8]: -0.491 | glycan array binding signal (z-score) [9]: -0.827 | glycan array binding signal (z-score) [10]: -0.487 | glycan array binding signal (z-score) [11]: 0.325 | glycan array binding signal (z-score) [12]: 0.049 | glycan array binding signal (z-score) [13]: -0.781 | glycan array binding signal (z-score) [14]: -0.746 | glycan array binding signal (z-score) [15]: -0.414 | glycan array binding signal (z-score) [16]: 0.004 | glycan array binding signal (z-score) [17]: -0.831 | glycan array binding signal (z-score) [18]: -0.94 | glycan array binding signal (z-score) [19]: -0.956 | glycan array binding signal (z-score) [20]: -0.326 | glycan array binding signal (z-score) [21]: -0.079 | glycan array binding signal (z-score) [22]: -0.253 | glycan array binding signal (z-score) [23]: 0.836 | glycan array binding signal (z-score) [24]: 0.878 | glycan array binding signal (z-score) [25]: 0.994 | glycan array binding signal (z-score) [26]: -0.206 | glycan array binding signal (z-score) [27]: 0.097 | glycan array binding signal (z-score) [28]: -0.51 | glycan array binding signal (z-score) [29]: 0.475 | glycan array binding signal (z-score) [30]: 0.389 | glycan array binding signal (z-score) [31]: -0.881 | glycan array binding signal (z-score) [32]: -0.36 | glycan array binding signal (z-score) [33]: 0.184 | glycan array binding signal (z-score) [34]: -0.328 | glycan array binding signal (z-score) [35]: -0.141 | glycan array binding signal (z-score) [36]: 0.056 | glycan array binding signal (z-score) [37]: -0.265 | glycan array binding signal (z-score) [38]: -0.83 | glycan array binding signal (z-score) [39]: 0.559 | glycan array binding signal (z-score) [40]: 0.315 | glycan array binding signal (z-score) [41]: 1.61 | glycan array binding signal (z-score) [42]: 0.957 | glycan array binding signal (z-score) [43]: -0.703 | glycan array binding signal (z-score) [44]: 0.357 | glycan array binding signal (z-score) [45]: -0.21
